Source: the supplement of paper PMC6414424
± gives the standard deviation of the averaged measurements. This is one part of the list.

test system: APPdp1-6 iPSC-derived neurons; test: pThr231Tau/total Tau ratio Z-score vs DMSO vehicle wells; higher = more pThr231Tau relative to total Tau; conditions: 5 µM; treatment time 5 days

Row | Compound | pThr231Tau/total Tau ratio Z-score
1 | CCCNC(=O)NS(=O)(=O)c1ccc(Cl)cc1 [Prestw-323] | -0.905 ± 0.21
2 | CCN(CC)C(C)CN1c2ccccc2Sc2ccccc21 (centres undefined) [Prestw-840] | -1.57 ± 1.4
3 | CCCCC1C(=O)N(c2ccccc2)N(c2ccc(O)cc2)C1=O (centres undefined) [Prestw-1049] | -0.0955 ± 0.72
4 | N[C@H]1CONC1=O [Prestw-1089] | -1.21 ± 0.9
5 | N[C@H]1CONC1=O [Prestw-1086] | 0.609 ± 0.27
6 | CCN(CC)C(=O)Nc1ccc(OCC(O)CNC(C)(C)C)c(C(C)=O)c1 (centres undefined) [Prestw-1132] | -0.286 ± 0.054
7 | CC(=O)Nc1ccc(OC(=O)c2ccccc2O)cc1 [ACETAMINOSALOL    Therap cat: analgesic, antipyretic] | 1.15 ± 1.2
8 | COc1cc2nc(N3CCN(C(=O)C4COc5ccccc5O4)CC3)nc(N)c2cc1OC (centres undefined) [Prestw-858] | 0.0527 ± 0.72
9 | Cc1cc(C(C)(C)C)cc(C)c1CC1=NCCN1 [Prestw-223] | 0.685 ± 0.25
10 | CCN(CCCCOC(=O)c1ccc(OC)c(OC)c1)C(C)Cc1ccc(OC)cc1 (centres undefined) [Prestw-310] | -0.531 ± 0.21
11 | C[C@@H]1C[C@H]2[C@@H]3CCC4=CC(=O)C=C[C@]4(C)[C@@]3(F)[C@@H](O)C[C@]2(C)[C@H]1C(=O)CO [DESOXYMETASONE, antiinflammatory] | 1.81 ± 1.1
12 | CCN(CC)CCOCCOC(=O)C1(c2ccccc2)CCCC1 [Prestw-387] | -0.71 ± 2
13 | Cc1c(N)c(=O)n(-c2ccccc2)n1C [Prestw-181] | 0.0318 ± 0.25
14 | C=CCOc1ccccc1OCC(O)CNC(C)C (centres undefined) [Prestw-1057] | -1.1 ± 1.6
15 | CCOC(=O)Nc1nc2ccccc2[nH]1 [LOBENDAZOLE, anthelmintic] | 1.47 ± 0.83
16 | CCOC(=O)/C=C(C)/C=C/C=C(C)/C=C/c1c(C)cc(OC)c(C)c1C [Prestw-1409] | -0.596 ± 0.69
17 | CN1CCN2c3ncccc3Cc3ccccc3C2C1 (centres undefined) [Prestw-1144] | 1.12 ± 0.63
18 | Cc1cc(C)nc(NS(=O)(=O)c2ccc(N)cc2)n1 [Prestw-775] | 0.188 ± 0.27
19 | CC1(C)O[C@@H]2C[C@H]3[C@@H]4C[C@H](F)C5=CC(=O)C=C[C@]5(C)[C@@]4(F)[C@@H](O)C[C@]3(C)[C@]2(C(=O)CO)O1 [Prestw-1419] | -0.343 ± 0.42
20 | COc1cc(NS(=O)(=O)c2ccc(N)cc2)ncn1 [Prestw-823] | 1.02 ± 0.92
21 | COC(=O)N/N=C/c1c[n+]([O-])c2ccccc2[n+]1[O-] [Prestw-1121] | -0.409 ± 0.2
22 | CN(C(=O)CN(CCO)CC(=O)N(C)C(C)(C)Cc1ccccc1)C(C)(C)Cc1ccccc1 [Prestw-58] | -1.52 ± 0.34
23 | CC(C(O)c1ccc(O)cc1)N1CCC(Cc2ccccc2)CC1 (centres undefined) [Prestw-311] | 0.321 ± 1.4
24 | C[C@@H]1C/C=C/C=C/C=C/C=C/[C@H](O[C@@H]2O[C@H](C)[C@@H](O)[C@H](N)[C@@H]2O)C[C@@H]2O[C@](O)(C[C@@H](O)C[C@H]3O[C@@H]3/C=C/C(=O)O1)C[C@H](O)[C@H]2C(=O)O [NATAMYCIN, antibacterial] | -0.311 ± 0.27
25 | COc1ccc(Cl)cc1C(=O)NCCc1ccc(S(=O)(=O)NC(=O)NC2CCCCC2)cc1 [Prestw-316] | 0.404

Row | Compound | pThr231Tau/total Tau ratio Z-score
26 | CC#C[C@]1(O)CC[C@H]2[C@@H]3CCC4=CC(=O)CCC4=C3[C@@H](c3ccc(N(C)C)cc3)C[C@@]21C [Prestw-299] | 0.1495 ± 0.00016
27 | CCCCCCNC(=O)n1cc(F)c(=O)[nH]c1=O | 0.578 ± 1.1
28 | CCCCC(CC)CN=C(N)NC(N)=NCCCCCCN=C(N)NC(N)=NCC(CC)CCCC (centres undefined) [Prestw-777] | -2.94 ± 0.68
29 | CC(C)Oc1ccc2c(=O)c(-c3ccccc3)coc2c1 [IPRAFLAVONE    Therap cat: anabolic] | -0.612 ± 0.032
30 | Cc1cc2cc3c(C)cc(=O)oc3c(C)c2o1 [Prestw-709] | 0.0247 ± 0.2
31 | CC(=O)Nc1c(I)cc(I)c(C(=O)O)c1I [ACETRIAZOIC ACID, X-ray contrast medium] | 0.315 ± 0.61
32 | CC(=O)Nc1nnc(S(N)(=O)=O)s1 [Prestw-3] | -0.143 ± 0.11
33 | Clc1ccc2nsnc2c1NC1=NCCN1 [Prestw-1182] | -0.258 ± 0.23
34 | CCCCOc1cc(C(=O)OCCN(CC)CC)ccc1N [Prestw-57] | -1.37 ± 0.72
35 | C[N+](C)(C)CC(O)CC(=O)[O-] (centres undefined) | 0.442 ± 0.53
36 | COC(=O)[C@H](Cc1ccccc1)NC(=O)[C@@H](N)CC(=O)O [Aspartame] | -1.11 ± 0.72
37 | C[C@]12CC[C@@H]3c4ccc(O)cc4C[C@@H](CCCCCCCCC[S+]([O-])CCCC(F)(F)C(F)(F)F)[C@H]3[C@@H]1CC[C@@H]2O (some centres undefined) [Prestw-1424] | -1.15 ± 0.32
38 | CO/N=C(\C(=O)N[C@@H]1C(=O)N2C(C(=O)O)=C(COC(C)=O)CS[C@H]12)c1csc(N)n1 [Prestw-139] | 0.657 ± 1
39 | CC(CNC1CCCCC1)OC(=O)c1ccccc1 (centres undefined) [Prestw-788] | 1.46 ± 1.6
40 | Nc1ccc(S(=O)(=O)Nc2nccs2)cc1 [Prestw-16] | -1.36 ± 1.3
41 | Cc1ccc(-c2cc(C(F)(F)F)nn2-c2ccc(S(N)(=O)=O)cc2)cc1 [Prestw-1371] | -0.354 ± 0.77
42 | C[C@@H]1CCC[C@H](C)N1NC(=O)c1ccc(Cl)c(S(N)(=O)=O)c1 [Prestw-354] | 0.322 ± 0.68
43 | CC[C@H]1OC(=O)[C@H](C)[C@@H](O[C@H]2C[C@@](C)(OC)[C@@H](O)[C@H](C)O2)[C@H](C)[C@@H](O[C@@H]2O[C@H](C)C[C@H](N(C)C)[C@H]2O)[C@](C)(O)C[C@@H](C)CN(C)[C@H](C)[C@@H](O)[C@]1(C)O [Prestw-1234] | 0.585 ± 1
44 | CC1(C)S[C@@H]2[C@H](NC(=O)C(C(=O)O)c3ccsc3)C(=O)N2[C@H]1C(=O)O (some centres undefined) [TICARCILLIN DISODIUM, antibacterial] | 0.656 ± 1.4
45 | CN[C@H]1CC[C@@H](c2ccc(Cl)c(Cl)c2)c2ccccc21 [Prestw-1014] | -1.45 ± 1.9
46 | CCN(CC)CCNC(=O)c1ccc(N)cc1 [Prestw-337] | 1.18 ± 0.069
47 | NC[C@H](O)c1ccc(O)c(O)c1 [Norepinephrine] | 0.47 ± 0.78
48 | CC(=O)Nc1c(I)c(C(=O)N[C@H]2C(O)O[C@H](CO)[C@@H](O)[C@@H]2O)c(I)c(N(C)C(C)=O)c1I (some centres undefined) [Prestw-463] | -0.68 ± 0.017
49 | CCCCCCOc1ccccc1C(N)=O [EXALAMIDE    Therap cat: antifungal] | 0.671 ± 0.46

A few values from the list.
C[C@@H]1CCC[C@H](C)N1NC(=O)c1ccc(Cl)c(S(N)(=O)=O)c1 [Prestw-354] | pThr231Tau/total Tau ratio Z-score: 0.322 ± 0.68
CCN(CC)CCNC(=O)c1ccc(N)cc1 [Prestw-337] | pThr231Tau/total Tau ratio Z-score: 1.18 ± 0.069
